Values quoted from earlier work as cited in PMC7284918, “In-Depth Characterization of EpiIntestinal Microtissue as a Model for Intestinal Drug Absorption and Metabolism in Human” (Pharmaceutics, 2020).

Conditions: human, clinical; cited from earlier work

Question: With `CC(C)c1c(C(=O)Nc2ccccc2)c(-c2ccccc2)c(-c2ccc(F)cc2)n1CC[C@@H](O)C[C@@H](O)CC(=O)O` [Atorvastatin] as the molecule, how does the “F (total oral availability)” value read?
Answer: 0.14 [17]

Question: And the “fe (fraction of renal excretion)” value?
Answer: 0.01 [18]
